Reference: the supplement of paper PMC4962491
± gives the standard deviation of the averaged measurements. Only a part is listed here, and it is no random draw. Single values are uncertain here, since repeats match poorly.

Test system: FaDu
Assay: mitochondrial oxygen consumption rate normalised to cell number, Z score over the library; higher = higher oxygen consumption (negative = OCR reduction)
Conditions: treatment time 24 h, assay medium: 5 mM galactose, 5 mM pyruvate, 4 mM glutamine
Description: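 Primary screen: FaDu cells were incubated 24 h with Pharmakon 1600 / TDI oncology set compounds at 2 or 10 uM. Mitochondrial-specific OCR (basal minus 2 uM antimycin A) was measured on a Seahorse XF96 in assay medium with 5 mM galactose, 5 mM pyruvate and 4 mM glutamine, then corrected for Hoechst cell number and expressed as a Z score […]. Compounds that cut cell number by >66% were excluded. Two repeats.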

Structure (SMILES) | mitochondrial oxygen consumption rate normalised (2 µM) | mitochondrial oxygen consumption rate normalised (10 µM)
Cc1cc(=O)oc2cc(O)ccc12 | -0.593 ± 0.18 | 0.758 ± 0.23
O=C(NCc1ccccc1)OCCO | 0.246 ± 0.27 | 1.42 ± 0.86
OC[C@H]1O[C@H]([S-])[C@H](O)[C@@H](O)[C@@H]1O.[Au+] | 1.32 ± 0.1 | 
CC(=O)c1ccc(S(=O)(=O)NC(=O)NC2CCCCC2)cc1 | 0.532 ± 0.041 | 
COc1ccc(CN(CCN(C)C)c2ccccn2)cc1 | -0.956 ± 0.69 | 
CCCNC(C)C(=O)Nc1ccccc1C (configuration not stated) | -0.271 ± 1.6 | -0.507 ± 1.1
Nc1ncn([C@@H]2O[C@H](CO)[C@@H](O)[C@H]2O)c(=O)n1 | -0.988 ± 0.97 | 
Nc1ncn([C@@H]2O[C@H](CO)[C@@H](O)[C@H]2O)c(=O)n1 [Azacitidine] | 0.772 ± 0.69 | 
CC(COc1ccccc1)N(CCCl)Cc1ccccc1 (configuration not stated) | -0.354 ± 0.41 | 
CCOC(=O)OC(C)OC(=O)[C@@H]1N2C(=O)[C@@H](NC(=O)[C@H](N)c3ccccc3)[C@H]2SC1(C)C (some centres not stated) | 0.24 ± 0.78 | 
COC1=C(OC)C(=O)C(CCCCCCCCCCO)=C(C)C1=O | 0.407 ± 0.48 | 
CCOC(=O)[C@H](CCc1ccccc1)N[C@H]1CCc2ccccc2N(CC(=O)O)C1=O | -0.641 ± 0.68 | 
C[C@]12CCC(=O)C=C1CC[C@@H]1[C@@H]2[C@@H](O)C[C@@]2(C)[C@H]1CC[C@]2(O)C(=O)COC(=O)CCC(=O)O | -0.635 ± 0.42 | 
CC(C)(C)NC[C@H](O)COc1nsnc1N1CCOCC1 | -0.319 ± 0.26 | 
NCCCC[C@H](N[C@@H](CCc1ccccc1)C(=O)O)C(=O)N1CCC[C@H]1C(=O)O | 0.676 ± 0.74 | 
CO/N=C(\C(=O)N[C@@H]1C(=O)N2C(C(=O)O)=C(CSc3nc(=O)c(O)nn3C)CS[C@H]12)c1csc(N)n1 | 0.383 ± 0.39 | 
CC(C)NCC(O)COc1ccc(COCCOC(C)C)cc1 (configuration not stated) | -0.637 ± 0.32 | 
O=C1CN2Cc3c(ccc(Cl)c3Cl)N=C2N1 | -0.278 ± 0.44 | 
Nc1nc(Cl)nc2c1ncn2[C@@H]1O[C@H](CO)[C@@H](O)[C@@H]1F | -1.11 ± 0.022 | 
Nc1nc(=O)c2nc(CNc3ccc(C(=O)N[C@@H](CCC(=O)O)C(=O)O)cc3)cnc2[nH]1 | 1.08 ± 0.53 | 
CC(=O)N[C@@H](CC(C)C)C(=O)O | 0.343 ± 0.29 | 
O=C([O-])[C@H]1/C(=C/CO)O[C@@H]2CC(=O)N21.[Li+] | -0.264 ± 0.46 | 
CC[C@H]1OC(=O)[C@H](C)[C@@H](O[C@H]2C[C@@](C)(OC)[C@@H](O)[C@H](C)O2)[C@H](C)[C@@H](O[C@@H]2O[C@H](C)C[C@H](N(C)C)[C@H]2O)[C@](C)(O)C[C@@H](C)/C(=N\OCOCCOC)[C@H](C)[C@@H](O)[C@]1(C)O | 0.191 ± 0.44 | 
NC(=O)N1c2ccccc2C=Cc2ccccc21 | 1.08 ± 0.058 | 
NCCC[C@H](N)C(=O)O | -0.0363 ± 0.026 | 
CN(C)CCN(Cc1cccs1)c1ccccn1 | 1.12 ± 1 | 

Structure (SMILES) | mitochondrial oxygen consumption rate normalised (2 µM) | mitochondrial oxygen consumption rate normalised (10 µM)
CC(=O)OCC(COC(C)=O)OC(C)=O | -0.503 ± 0.076 | 
O=c1cc[nH]c(=S)[nH]1 | -1.35 ± 0.14 | 
CC(=O)OC1CC2CCC1(C)C2(C)C (configuration not stated) | -0.941 ± 0.66 | 
CC[C@H]1OC(=O)[C@H](C)[C@@H](O[C@H]2C[C@@](C)(OC)[C@@H](O)[C@H](C)O2)[C@H](C)[C@@H](O[C@@H]2O[C@H](C)C[C@H](N(C)C)[C@H]2O)[C@](C)(O)C[C@@H](C)[C@@H]2N[C@@H](COCCOC)O[C@H]([C@H]2C)[C@]1(C)O | 0.29 ± 1.1 | -0.149 ± 0.29
O=C1CC2(CCCC2)CC(=O)N1CCCCN1CCN(c2ncccn2)CC1 | 0.261 ± 0.023 | 
CC(=O)Nc1ncc([N+](=O)[O-])s1 | 0.105 ± 0.071 | 0.857 ± 0.27
CC12CCC(CC1)C(C)(C)O2 | 0.356 ± 1.2 | 
Cc1cc(CC(=O)O)n(C)c1C(=O)c1ccc(Cl)cc1 | 0.528 ± 1.7 | 
COc1ccc2cc(C(C)C(=O)O)ccc2c1 (configuration not stated) | -0.122 ± 0.38 | 
Nc1ccc2cc3ccc(N)cc3nc2c1 | 0.0446 ± 0.94 | 
CC1Cc2ccccc2N1NC(=O)c1ccc(Cl)c(S(N)(=O)=O)c1 (configuration not stated) | -1.06 ± 0.11 | 
CCC(=O)c1c(O)cc(O)cc1O | -0.452 ± 0.011 | 
FC(F)(Cl)C(F)(F)Cl | 0.348 ± 0.15 | 
Nc1ccc(S(=O)(=O)Nc2ccnn2-c2ccccc2)cc1 | -0.865 ± 0.96 | 
CO/N=C(\C(=O)N[C@@H]1C(=O)N2C(C(=O)O)=C(COC(N)=O)CS[C@H]12)c1ccco1 | 0.55 ± 0.5 | 
O=C(NCC(O)CO)c1c(I)c(C(=O)NCC(O)CO)c(I)c(N(CCO)C(=O)CO)c1I (configuration not stated) | 0.643 ± 0.39 | 
O=C1C2CC3CC1CC(O)(C3)C2 | -0.383 ± 0.2 | 
CCN1CCN(c2cc3c(cc2F)c(=O)c(C(=O)O)cn3C2CC2)CC1 | -0.815 ± 0.47 | 
COc1cc(NS(C)(=O)=O)ccc1Nc1c2ccccc2nc2ccccc12 | -2.74 ± 1.6 | 
Cc1nnc(NS(=O)(=O)c2ccc(N)cc2)s1 | -0.67 ± 0.13 | 
CC1CC(OC(=O)C(O)c2ccccc2)CC(C)(C)N1C (configuration not stated) | 0.169 ± 0.0031 | 
C1CCN2C[C@@H]3C[C@@H](CN4CCCC[C@@H]34)[C@H]2C1 | -0.935 ± 0.51 | 
CC1(C)O[C@@H]2C[C@H]3[C@@H]4CCC5=CC(=O)C=C[C@]5(C)[C@@]4(F)[C@@H](O)C[C@]3(C)[C@]2(C(=O)CO)O1 | 1.12 ± 0.075 | 
O=C(O)CCCc1ccccc1 | 0.578 ± 0.24 | 
Cc1cnc(NC(=O)C2=C(O)c3ccccc3S(=O)(=O)N2C)s1 | -0.36 ± 1 | 
O=C(O)COC(=O)Cc1ccccc1Nc1c(Cl)cccc1Cl | -0.168 ± 0.88 | 

Two records drawn at random from those above:
Structure (SMILES) | mitochondrial oxygen consumption rate normalised (2 µM) | mitochondrial oxygen consumption rate normalised (10 µM)
Nc1ccc2cc3ccc(N)cc3nc2c1 | 0.0446 ± 0.94 | 
O=C1CC2(CCCC2)CC(=O)N1CCCCN1CCN(c2ncccn2)CC1 | 0.261 ± 0.023 | 
